These are yes or no findings as the source states them, for the method shown.

Test [1] addresses PspA, serotype 11A (Streptococcus pneumoniae). Put plainly: ELISA on plates coated with fixed whole bacteria, serotype 11a, OD405.
Test [2] shares this target. Put plainly: flow cytometry on whole bacteria, serotype 11A. (In general: In flow cytometry, cells or beads pass a laser one at a time.)
Test [3] deals with PspA, serotype 9N (Streptococcus pneumoniae). Put plainly: flow cytometry on whole bacteria, serotype 9N.
Test [4] concerns the target PspA, serotype 6D (Streptococcus pneumoniae). As to the kind of experiment: flow cytometry on whole bacteria, serotype 6d.
Test [5] deals with PspA, serotype 9N (Streptococcus pneumoniae). Put plainly: ELISA on plates coated with fixed whole bacteria, serotype 9N, OD405.
Test [6] deals with PspA, serotype 6D (Streptococcus pneumoniae). Put plainly: ELISA on plates coated with fixed whole bacteria, serotype 6D, OD405.
Test [7] deals with PspA, serotype 2 (Streptococcus pneumoniae). Put plainly: flow cytometry on whole bacteria, serotype 2.
The target in test [8] is PspA, serotype 6C (Streptococcus pneumoniae). Put plainly: flow cytometry on whole bacteria, serotype 6c.
For test [9], the target named is PspA, serotype 12F (Streptococcus pneumoniae). Put plainly: ELISA on plates coated with fixed whole bacteria, serotype 12F, OD405. (In general: An ELISA detects its analyte on a solid surface through an enzyme-linked reagent.)
Test [10] shares this target. As to the kind of experiment: flow cytometry on whole bacteria, serotype 12F.
In test [11] the target is PspA, serotype 2 (Streptococcus pneumoniae). Put plainly: ELISA on plates coated with fixed whole bacteria, serotype 2, OD405.
Test [12] addresses PspA, serotype 6C (Streptococcus pneumoniae). As to the kind of experiment: ELISA on plates coated with fixed whole bacteria, serotype 6C, OD405.

B1: human monoclonal antibody PspA16 (antibody, V domains shown)
VH: QVQLVQSGPDVKKPGASVKVSCKTSGYTFTGYYMHWVRQAPGQGLEWMGWVNPNTGGTSYAQKFQGRVTVTRDTSISTVYMELSALGSDDTAIYFCARAWAPGAEYLHHWGQGTLVTVSS
VL: EIVMTQSPGTLSLSPGETATLSCRASQSVGSSYLAWYQQKPGQAPRLLIFGASNRATGIPVRFSASGSGTDFTLTISRLEPEDFAVYYCQQHDHSPFTFGPGTKVDLK
As to B1, the binding result is “no binding (tested: log10 1.3 (about 20 µg/ml))” in test [1]; “no binding (tested: 10 µg/ml (single concentration))” in [2]; “no binding (tested: 10 µg/ml (single concentration))” in test [3]; “no binding (tested: 10 µg/ml (single concentration))” in test [4]; “no binding (tested: log10 1.3 (about 20 µg/ml))” in test [5]; “no binding (tested: log10 1.3 (about 20 µg/ml))” in test [6]. Also, the binding result in test [7] was “no binding (tested: 10 µg/ml (single concentration))”; in [8], “no binding (tested: 10 µg/ml (single concentration))”; in [9] it was “no binding (tested: log10 1.3 (about 20 µg/ml))”; in test [10], “no binding (tested: 10 µg/ml (single concentration))”; in test [11], “no binding (tested: log10 1.3 (about 20 µg/ml))”; in [12] it was “no binding (tested: log10 1.3 (about 20 µg/ml))”.

Values taken from patent US20240117019A1.
